From patent publication US8044065B2, “Benzothienopyridines for use as inhibitors of Eg5 kinesin” (Altana Pharma AG, priority 2004, dated 2011)
Some results were stated once for a whole list of compounds, not compound by compound.

What follows are molecules tested against T1, Eg5 kinesin motor domains (Homo sapiens, UniProt P52732) (assay: ATPase activity of Eg5 kinesin motor domains (Malachite green)). Settings: 300 μM ATP, 200 nM microtubules, 30 min room temperature.
T1 construct: The ATPase activity of Eg5 kinesin motor domains (Cytoskeleton, cat. No. EG01) can be used to monitor the effects of modulating agents; purchased Cytoskeleton EG01
T1 sequence (P52732 18-359 limits assumed): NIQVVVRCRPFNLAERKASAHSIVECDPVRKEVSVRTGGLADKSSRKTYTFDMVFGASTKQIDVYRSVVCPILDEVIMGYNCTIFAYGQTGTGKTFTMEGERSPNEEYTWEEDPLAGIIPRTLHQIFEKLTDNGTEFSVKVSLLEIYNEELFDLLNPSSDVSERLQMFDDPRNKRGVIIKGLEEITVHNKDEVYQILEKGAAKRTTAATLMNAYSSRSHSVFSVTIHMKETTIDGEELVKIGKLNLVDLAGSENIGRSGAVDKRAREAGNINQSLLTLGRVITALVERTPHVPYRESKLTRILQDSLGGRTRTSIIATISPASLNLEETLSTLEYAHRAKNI
Assay type: biochemical

Compound	Inhibition of Eg5 activity, -log IC50
CN1C(=O)N2C(c3cccc(O)c3)c3[nH]c4ccccc4c3CC2(C)C1=O (racemic) [Example 1, (±)-(3aSR,10RS)-10-(3-Hydroxy-phenyl)-2,3a-dimethyl-3a,4,9,10-tetrahydro-2,9,10a-triaza-cyclopenty[b]fluorene-1,3-dione]	listed compounds are all ≧6.9 mol/l
CN1C(=O)N2[C@H](c3cccc(O)c3)c3sc4ccccc4c3C[C@@]2(C)C1=O (racemic) [Example 5, (3aSR,10RS)-10-(3-Hydroxy-phenyl)-2,3a-dimethyl-4,10-dihydro-3aH-9-thia-2,10a-diaza-cyclopenta[b]fluorene-1,3-dione]	listed compounds are all ≧6.9 mol/l
CN1C(=O)N2[C@H](c3cccc(O)c3)c3[nH]c4ccccc4c3C[C@@]2(C)C1=O [Example 2, (3aS,10R)-10-(3-Hydroxy-phenyl)-2,3a-dimethyl-3a,4,9,10-tetrahydro-2,9,10a-triaza-cyclopenty[b]fluorene-1,3-dione]	listed compounds are all ≧6.9 mol/l
CN1C(=O)C2Cc3c(sc4ccccc34)C(c3cccc(O)c3)N2C1=O [Example 3, (3aS,10R)-10-(3-Hydroxy-phenyl)-2-methyl-4,10-dihydro-3aH-9-thia-2,10-diaza-cyclopenta[b]fluorene-1,3-dione]	listed compounds are all ≧6.9 mol/l
CCCCN1C(=O)[C@@H]2Cc3c(sc4ccccc34)[C@@H](c3cccc(O)c3)N2C1=O [Example 4, (3aS,10R)-2-Butyl-10-(3-hydroxy-phenyl)-4,10-dihydro-3aH-9-thia-2,10a-diaza-cyclopenta[b]fluorene-1,3-dione]	listed compounds are all ≧6.9 mol/l
